Measured values reported in the supplement of paper PMC10849652.
The list shows a part of the results.

The chains behind the UniProt entries cited, without tags or fusion partners. Where a name states a change or a piece, a line headed by the entry shows the natural chain unless it says otherwise.
UniProt Q9UJX3, whole entry, looked up: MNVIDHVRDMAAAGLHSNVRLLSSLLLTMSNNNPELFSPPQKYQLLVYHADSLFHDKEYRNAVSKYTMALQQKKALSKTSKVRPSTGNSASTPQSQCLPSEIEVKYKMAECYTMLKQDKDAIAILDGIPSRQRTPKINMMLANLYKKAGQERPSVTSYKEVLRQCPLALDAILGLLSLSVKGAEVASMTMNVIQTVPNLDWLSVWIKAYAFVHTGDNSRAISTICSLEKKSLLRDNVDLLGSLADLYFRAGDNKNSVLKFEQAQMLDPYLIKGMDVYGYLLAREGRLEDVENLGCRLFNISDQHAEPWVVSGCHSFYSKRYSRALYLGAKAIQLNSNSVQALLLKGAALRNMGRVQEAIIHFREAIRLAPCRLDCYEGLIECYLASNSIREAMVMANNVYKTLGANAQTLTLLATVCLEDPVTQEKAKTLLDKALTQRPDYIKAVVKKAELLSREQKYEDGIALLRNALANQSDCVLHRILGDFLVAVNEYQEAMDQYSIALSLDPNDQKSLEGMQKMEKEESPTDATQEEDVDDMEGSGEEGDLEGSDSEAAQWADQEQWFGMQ
UniProt Q9H6U8: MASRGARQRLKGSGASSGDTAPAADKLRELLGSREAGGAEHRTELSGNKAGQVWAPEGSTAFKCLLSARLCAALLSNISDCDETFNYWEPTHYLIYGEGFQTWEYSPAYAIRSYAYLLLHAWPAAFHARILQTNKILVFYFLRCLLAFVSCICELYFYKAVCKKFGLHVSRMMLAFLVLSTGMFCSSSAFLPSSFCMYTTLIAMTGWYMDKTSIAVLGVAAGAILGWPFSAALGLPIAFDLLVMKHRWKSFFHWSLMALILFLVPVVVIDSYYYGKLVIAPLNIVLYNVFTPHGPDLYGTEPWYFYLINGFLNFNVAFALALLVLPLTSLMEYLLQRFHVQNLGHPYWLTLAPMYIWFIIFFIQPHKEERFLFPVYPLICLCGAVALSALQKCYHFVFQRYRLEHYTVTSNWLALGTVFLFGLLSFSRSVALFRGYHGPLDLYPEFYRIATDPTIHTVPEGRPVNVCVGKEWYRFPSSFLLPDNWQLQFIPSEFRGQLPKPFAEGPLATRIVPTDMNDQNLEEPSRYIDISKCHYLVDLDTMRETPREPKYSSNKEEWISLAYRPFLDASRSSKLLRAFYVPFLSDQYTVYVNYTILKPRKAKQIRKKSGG
UniProt P20073: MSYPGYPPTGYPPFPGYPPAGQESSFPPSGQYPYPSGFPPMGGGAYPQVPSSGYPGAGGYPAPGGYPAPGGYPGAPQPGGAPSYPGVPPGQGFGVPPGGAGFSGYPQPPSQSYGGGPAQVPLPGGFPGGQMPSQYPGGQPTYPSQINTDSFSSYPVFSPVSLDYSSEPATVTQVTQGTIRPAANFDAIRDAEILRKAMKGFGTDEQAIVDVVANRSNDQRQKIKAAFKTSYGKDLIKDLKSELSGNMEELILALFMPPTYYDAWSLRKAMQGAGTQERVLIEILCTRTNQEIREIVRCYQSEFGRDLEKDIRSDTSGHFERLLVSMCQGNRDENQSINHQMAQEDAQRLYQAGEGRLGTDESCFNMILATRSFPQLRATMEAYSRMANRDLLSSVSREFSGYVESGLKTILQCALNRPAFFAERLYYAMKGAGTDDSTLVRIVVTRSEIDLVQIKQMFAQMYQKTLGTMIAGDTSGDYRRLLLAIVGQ
UniProt Q9Y6B7: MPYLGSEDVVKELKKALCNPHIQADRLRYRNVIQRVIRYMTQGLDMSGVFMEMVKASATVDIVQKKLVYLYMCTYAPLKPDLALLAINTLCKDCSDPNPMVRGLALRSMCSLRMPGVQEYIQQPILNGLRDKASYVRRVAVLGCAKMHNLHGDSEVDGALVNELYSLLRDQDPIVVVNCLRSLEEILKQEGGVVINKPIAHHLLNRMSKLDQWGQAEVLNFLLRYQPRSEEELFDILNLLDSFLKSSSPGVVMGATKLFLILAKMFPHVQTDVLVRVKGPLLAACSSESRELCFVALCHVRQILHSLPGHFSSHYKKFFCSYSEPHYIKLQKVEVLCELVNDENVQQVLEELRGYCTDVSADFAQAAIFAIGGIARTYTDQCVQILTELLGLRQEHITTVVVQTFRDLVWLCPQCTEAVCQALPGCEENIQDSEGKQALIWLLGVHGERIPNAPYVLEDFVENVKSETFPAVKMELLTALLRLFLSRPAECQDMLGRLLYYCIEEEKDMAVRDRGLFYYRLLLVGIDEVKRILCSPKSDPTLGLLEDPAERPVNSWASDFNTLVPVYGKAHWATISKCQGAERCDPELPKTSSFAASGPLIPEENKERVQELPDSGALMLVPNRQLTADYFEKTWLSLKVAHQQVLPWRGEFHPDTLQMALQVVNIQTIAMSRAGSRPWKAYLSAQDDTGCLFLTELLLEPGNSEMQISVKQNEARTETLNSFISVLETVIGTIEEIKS
UniProt Q9UJX5, whole entry, looked up: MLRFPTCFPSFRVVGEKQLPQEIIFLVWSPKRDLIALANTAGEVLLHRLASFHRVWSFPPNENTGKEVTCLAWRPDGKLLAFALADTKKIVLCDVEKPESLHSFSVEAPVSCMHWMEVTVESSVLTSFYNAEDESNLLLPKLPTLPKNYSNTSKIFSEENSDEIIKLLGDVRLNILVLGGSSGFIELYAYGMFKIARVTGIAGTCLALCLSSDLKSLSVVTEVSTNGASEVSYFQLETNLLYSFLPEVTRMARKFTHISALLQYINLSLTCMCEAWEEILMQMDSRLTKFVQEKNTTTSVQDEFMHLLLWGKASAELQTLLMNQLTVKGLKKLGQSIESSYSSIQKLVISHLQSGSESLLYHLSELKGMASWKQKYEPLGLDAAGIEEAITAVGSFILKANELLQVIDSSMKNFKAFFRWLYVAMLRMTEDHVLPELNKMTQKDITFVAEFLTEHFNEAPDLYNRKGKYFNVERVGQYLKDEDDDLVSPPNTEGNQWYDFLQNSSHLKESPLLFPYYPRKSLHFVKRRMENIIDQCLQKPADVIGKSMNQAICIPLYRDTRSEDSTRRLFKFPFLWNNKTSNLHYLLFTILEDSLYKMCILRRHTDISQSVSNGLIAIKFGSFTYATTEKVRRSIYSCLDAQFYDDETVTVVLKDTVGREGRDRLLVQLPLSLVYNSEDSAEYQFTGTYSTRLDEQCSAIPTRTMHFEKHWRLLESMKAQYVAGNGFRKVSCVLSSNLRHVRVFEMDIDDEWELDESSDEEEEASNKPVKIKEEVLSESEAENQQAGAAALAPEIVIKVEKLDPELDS
UniProt Q9UPS8: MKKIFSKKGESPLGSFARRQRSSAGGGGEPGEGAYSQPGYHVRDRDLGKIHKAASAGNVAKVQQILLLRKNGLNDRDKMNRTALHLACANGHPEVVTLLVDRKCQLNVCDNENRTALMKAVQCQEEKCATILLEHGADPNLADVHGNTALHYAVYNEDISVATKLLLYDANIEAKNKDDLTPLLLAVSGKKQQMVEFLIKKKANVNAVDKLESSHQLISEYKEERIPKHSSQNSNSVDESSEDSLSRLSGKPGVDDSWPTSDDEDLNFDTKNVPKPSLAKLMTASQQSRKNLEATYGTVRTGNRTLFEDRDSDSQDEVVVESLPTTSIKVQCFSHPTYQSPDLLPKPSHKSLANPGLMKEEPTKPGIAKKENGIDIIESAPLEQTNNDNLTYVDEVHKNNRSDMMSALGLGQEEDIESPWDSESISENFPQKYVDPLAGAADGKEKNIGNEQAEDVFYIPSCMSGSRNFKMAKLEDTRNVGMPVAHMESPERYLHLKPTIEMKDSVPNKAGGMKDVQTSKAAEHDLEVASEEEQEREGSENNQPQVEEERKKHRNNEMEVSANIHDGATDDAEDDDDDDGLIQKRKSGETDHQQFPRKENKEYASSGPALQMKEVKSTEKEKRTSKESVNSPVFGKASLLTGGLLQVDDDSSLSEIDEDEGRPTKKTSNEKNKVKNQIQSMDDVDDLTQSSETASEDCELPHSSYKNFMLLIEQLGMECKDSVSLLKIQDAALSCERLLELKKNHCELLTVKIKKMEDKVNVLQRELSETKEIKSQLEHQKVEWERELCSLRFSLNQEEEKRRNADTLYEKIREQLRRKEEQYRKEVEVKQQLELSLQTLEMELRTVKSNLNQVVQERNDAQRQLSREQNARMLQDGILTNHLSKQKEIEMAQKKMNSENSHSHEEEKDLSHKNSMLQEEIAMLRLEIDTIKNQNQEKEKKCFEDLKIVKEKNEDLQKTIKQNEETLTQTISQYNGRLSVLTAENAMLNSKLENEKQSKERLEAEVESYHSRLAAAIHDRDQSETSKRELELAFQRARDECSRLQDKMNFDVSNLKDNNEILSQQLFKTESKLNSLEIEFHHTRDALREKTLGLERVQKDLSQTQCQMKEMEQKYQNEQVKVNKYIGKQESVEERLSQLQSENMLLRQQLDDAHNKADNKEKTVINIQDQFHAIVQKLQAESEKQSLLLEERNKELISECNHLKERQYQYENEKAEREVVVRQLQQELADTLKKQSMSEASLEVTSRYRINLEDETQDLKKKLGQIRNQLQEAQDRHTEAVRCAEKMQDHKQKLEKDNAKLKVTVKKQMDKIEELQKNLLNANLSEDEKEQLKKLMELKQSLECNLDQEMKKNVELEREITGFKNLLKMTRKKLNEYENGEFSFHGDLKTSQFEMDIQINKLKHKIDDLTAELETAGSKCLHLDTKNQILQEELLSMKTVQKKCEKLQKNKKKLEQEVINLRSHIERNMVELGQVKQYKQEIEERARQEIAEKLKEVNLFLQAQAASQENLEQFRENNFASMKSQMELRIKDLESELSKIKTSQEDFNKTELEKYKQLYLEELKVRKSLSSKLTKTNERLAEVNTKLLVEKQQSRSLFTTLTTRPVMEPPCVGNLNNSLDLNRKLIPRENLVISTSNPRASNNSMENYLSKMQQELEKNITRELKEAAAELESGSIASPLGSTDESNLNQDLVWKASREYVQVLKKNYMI
UniProt P00352: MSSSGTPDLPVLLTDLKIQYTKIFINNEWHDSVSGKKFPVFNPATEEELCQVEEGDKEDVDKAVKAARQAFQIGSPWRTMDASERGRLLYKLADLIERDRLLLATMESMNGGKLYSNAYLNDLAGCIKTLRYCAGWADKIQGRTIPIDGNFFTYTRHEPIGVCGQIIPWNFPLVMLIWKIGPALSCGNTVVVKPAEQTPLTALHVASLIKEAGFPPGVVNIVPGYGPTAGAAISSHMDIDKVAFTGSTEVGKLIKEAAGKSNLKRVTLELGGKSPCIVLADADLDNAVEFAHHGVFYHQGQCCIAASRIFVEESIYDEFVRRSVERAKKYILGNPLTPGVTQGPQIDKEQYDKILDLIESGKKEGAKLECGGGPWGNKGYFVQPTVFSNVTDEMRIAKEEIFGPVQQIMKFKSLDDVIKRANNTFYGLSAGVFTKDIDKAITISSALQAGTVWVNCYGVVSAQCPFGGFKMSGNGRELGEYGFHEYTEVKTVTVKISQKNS
UniProt Q96NW4, whole entry, looked up: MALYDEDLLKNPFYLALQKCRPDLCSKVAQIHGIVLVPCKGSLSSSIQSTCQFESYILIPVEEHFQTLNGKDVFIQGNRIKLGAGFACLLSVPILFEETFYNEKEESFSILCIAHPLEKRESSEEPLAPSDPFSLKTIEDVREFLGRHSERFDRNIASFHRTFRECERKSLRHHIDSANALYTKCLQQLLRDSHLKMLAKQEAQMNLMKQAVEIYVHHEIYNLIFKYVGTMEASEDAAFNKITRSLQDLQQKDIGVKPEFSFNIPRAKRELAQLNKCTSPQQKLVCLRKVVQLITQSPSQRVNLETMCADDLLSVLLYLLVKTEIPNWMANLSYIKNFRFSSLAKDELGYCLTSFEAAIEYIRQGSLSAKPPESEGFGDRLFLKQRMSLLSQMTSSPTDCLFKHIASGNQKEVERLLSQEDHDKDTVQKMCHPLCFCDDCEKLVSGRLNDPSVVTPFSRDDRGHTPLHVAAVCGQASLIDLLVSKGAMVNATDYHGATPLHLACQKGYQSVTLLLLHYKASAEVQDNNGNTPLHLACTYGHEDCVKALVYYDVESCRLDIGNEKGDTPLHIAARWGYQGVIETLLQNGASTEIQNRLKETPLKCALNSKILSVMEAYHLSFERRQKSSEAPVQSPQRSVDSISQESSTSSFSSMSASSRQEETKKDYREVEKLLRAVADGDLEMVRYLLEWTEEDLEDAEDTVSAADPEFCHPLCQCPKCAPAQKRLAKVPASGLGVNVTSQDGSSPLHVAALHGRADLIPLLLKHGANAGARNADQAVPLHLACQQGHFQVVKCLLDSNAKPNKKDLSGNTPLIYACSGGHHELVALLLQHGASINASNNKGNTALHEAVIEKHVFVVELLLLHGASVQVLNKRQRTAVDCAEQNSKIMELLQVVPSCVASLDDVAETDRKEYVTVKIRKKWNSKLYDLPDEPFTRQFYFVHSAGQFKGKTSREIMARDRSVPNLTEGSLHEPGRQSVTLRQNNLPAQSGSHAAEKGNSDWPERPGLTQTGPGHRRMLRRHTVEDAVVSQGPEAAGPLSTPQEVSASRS

Key:
Test in all cases: log2 fold change, soluble protein after heating vs DMSO (PISA); higher = thermal stabilisation; K562 lysate, 10 uM; active = over 0.2 and 3.5 SD of the protein, either way, in both replicates (recomputed)
[1] = compound: C1=CC=C(C=C1)[C@H](COC2=CC3=C(C=C2)NC(=O)N3)NC(=O)C4=CC=CN(C4=O)CC5=CC(=C(C=C5)F)F
Method in brief: (§1)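 The values are log-two fold changes in thermal stability compared with solvent controls and come from duplicates. They were obtained by TMTpro 16plex LC-MS/MS, with channel sums equalised, on the supernatant after 21,000xg for 90 min. That supernatant came from crude K562 extract at 1 mg/mL protein treated with 10 μM compound for 30 min, heated for 3 min across 48°C-58°C, pooled and brought to 0.5% NP-40 at 4°C.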

[2] = compound: CC1=C(SC2=C1C(=N[C@H](C3=NN=C(N32)C)CC(=O)N)C4=CC=C(C=C4)Cl)C
Method in brief: as §1

[3] = compound: CC1=C2C(=CC=C1)N=C(N(C2=O)C3=CC=CC=C3C)CN4C=NC5=C(N=CN=C54)N
Method in brief: as §1

[4] = compound: Cc1sc2c(c1C)C(c1ccc(Cl)cc1)=N[C@@H](CC(=O)OC(C)(C)C)c1nnc(C)n1-2
Method in brief: as §1

[5] = compound: c1ccc([C@@H]2C[C@H]2NC2CCNCC2)cc1
Method in brief: as §1

Measured: log2 fold change

ALDH9A1 (UniProt P49189)
inactive: [1] 0.036 | [2] -0.057 | [3] -0.109 | [4] 0.061

ALDH4A1 (UniProt P30038)
inactive: [1] 0.011 | [2] -0.052 | [3] 0.107 | [4] -0.039 | [5] 0.064

ALKBH4 (UniProt Q9NXW9)
inactive: [1] 0.011 | [2] 0.025 | [3] 0.032 | [4] 0.01 | [5] -0.017

ANAPC7 (UniProt Q9UJX3)
inactive: [1] -0.008 | [2] -0.003 | [3] -0.002 | [4] 0.023 | [5] 0.048

ALS2 (UniProt Q96Q42)
inactive: [1] -0.036 | [2] 0.042 | [3] 0.081 | [4] -0.043 | [5] 0.056

ALG9 isoform 3 (UniProt Q9H6U8)
inactive: [1] -0.051 | [2] 0.049 | [3] 0.002 | [4] -0.084 | [5] -0.01

AKT1 (UniProt P31749)
inactive: [1] 0.011 | [2] -0.028 | [3] -0.028 | [4] -0.009 | [5] 0.013

ANXA7 (UniProt P20073)
inactive: [1] 0.017 | [2] -0.013 | [3] 0.007 | [4] 0.012 | [5] -0.017

ALDH5A1 isoform 2 (UniProt P51649)
inactive: [1] -0.029 | [2] -0.018 | [3] -0.017 | [4] 0.004 | [5] 0.075

AP1G2 (UniProt O75843)
inactive: [1] 0.082 | [2] -0.09 | [3] 0.016 | [4] 0.028 | [5] -0.099

AP4B1 (UniProt Q9Y6B7)
inactive: [1] 0.02 | [2] 0.063 | [3] -0.025 | [4] 0.093 | [5] 0.03

ANAPC4 isoform 3 (UniProt Q9UJX5)
inactive: [1] 0.039 | [2] 0.007 | [3] 0.015 | [4] -0.026 | [5] -0.036

ANKRD26 (UniProt Q9UPS8)
inactive: [1] -0.056 | [2] -0.001 | [3] 0.103

AP1G1 isoform 2 (UniProt O43747)
inactive: [1] -0.001 | [2] 0.007 | [3] 0.008 | [4] 0.001 | [5] -0.036

ANXA2 isoform 2 (UniProt P07355)
inactive: [1] 0 | [2] -0.005 | [3] -0.019 | [4] 0.024 | [5] 0.02

ANKRD52 (UniProt Q8NB46)
inactive: [1] -0.004 | [2] -0.036 | [3] 0.056 | [4] 0.055 | [5] 0.004

ALDH1A1 (UniProt P00352)
inactive: [1] -0.032 | [2] 0.006 | [3] -0.028 | [4] -0.011 | [5] 0.045

ANP32B (UniProt Q92688)
inactive: [1] -0.013 | [2] 0.014 | [3] -0.002 | [4] -0.015 | [5] -0.025

ANTXR2 isoform 4 (UniProt P58335)
inactive: [1] 0.042 | [2] 0.04 | [3] -0.014 | [4] -0.017 | [5] -0.064

ALKBH3 (UniProt Q96Q83)
inactive: [1] 0.007 | [2] -0.031 | [3] 0.021 | [4] 0.013 | [5] -0.014

ANKRD13A (UniProt Q8IZ07)
inactive: [1] 0.025 | [2] 0.055 | [3] 0.01 | [4] -0.062 | [5] 0.008

ANKRD27 (UniProt Q96NW4)
inactive: [1] -0.025 | [2] 0.022 | [3] -0.011 | [4] 0.042 | [5] -0.002

ALKBH2 (UniProt Q6NS38)
inactive: [1] 0.105 | [2] 0.026 | [3] 0 | [4] -0.026 | [5] -0.068

ANKRD13C (UniProt Q8N6S4)
inactive: [1] -0.218 | [2] 0.172

ANXA11 (UniProt P50995)
active: [1] 0.23
inactive: [2] 0.028 | [3] 0.015 | [4] 0.015 | [5] 0.002

Two consecutive records from above, quoted:
ANKRD27 (UniProt Q96NW4)
inactive: [1] -0.025 | [2] 0.022 | [3] -0.011 | [4] 0.042 | [5] -0.002

ALKBH2 (UniProt Q6NS38)
inactive: [1] 0.105 | [2] 0.026 | [3] 0 | [4] -0.026 | [5] -0.068
